Where a name gives a salt, the structure may show the parent alone. Some of the results follow. Rule as the data show it: active = 1.25 or more and inactive = the rest. Single values are uncertain, as repeats are few or missing.
Each compound was assayed on Kcc2-LUC knock-in mouse primary cortical neurons (Kcc2 promoter reporter) (assay: Kcc2 promoter-driven luciferase activity relative to vehicle control (fold of vehicle (ratio)); higher = stronger Kcc2 promoter activation (Kcc2 expression enhancer)). Conditions: 100 nM; 48 h.

SMILES | Kcc2 promoter-driven luciferase activity
C/C(NNC(=O)c1ccccc1O)=C1\C=Nc2ccccc2S1 | active: 1.35
COc1ccc2nc(NC(=O)C(=O)CC(=O)c3ccc(Cl)cc3)sc2c1 | inactive: 0.97
CCNCCCCNCCCCNCCCCNCCCCNCC | inactive: 1.06
CO[C@@H]1[C@@H](OC(=O)c2ccc(C)[nH]2)[C@@H](O)[C@H](Oc2ccc3c(O)c(NC(=O)c4c[nH]c(C(=O)Nc5c(O)c6ccc(O[C@@H]7OC(C)(C)[C@H](OC)[C@@H](OC(=O)c8ccc(C)[nH]8)[C@H]7O)c(C)c6oc5=O)c4C)c(=O)oc3c2C)OC1(C)C [Coumermycin a1, Notomycin A1] | inactive: 1.05
COC(C(=O)C(O)C(C)O)C1Cc2cc3cc(OC4CC(OC5CC(O)C(O)C(C)O5)C(O)C(C)O4)c(C)c(O)c3c(O)c2C(=O)C1OC1CC(OC2CC(OC3CC(O)C(OC)C(C)O3)C(O)C(C)O2)C(O)C(C)O1 (stereo unspecified) [Variamycin] | inactive: 1.11
OC[C@H]1O[C@@H](n2cnc3c(=S)nc[nH]c32)[C@H](O)[C@@H]1O [6-Mercaptopurine ribonucleoside] | inactive: 0.707
COc1c(O[C@@H]2O[C@H](CO)[C@@H](O)[C@H](O)[C@H]2O)cc2c(c1OC)-c1ccc(OC)c(=O)cc1[C@@H](NC(C)=O)CC2 [Colchicoside] | inactive: 0.95
COc1ccc2c(c1)-c1nn(CCCN(C)C)c3ccc([N+](=O)[O-])c(c13)N2 [Pyrazoloacridine] | inactive: 0.42
CN(C)/N=N/c1[nH]cnc1C(N)=O [Dacarbazine] | inactive: 0.775
COC(=O)NC1C(C)OC(OC2C/C=C(/C)C3C=CC4C(OC5CC(OC6CC(O)C(OC7CC(O)C(OC)C(C)O7)C(C)O6)C(O)C(C)O5)C(C)CC(C)C4C3(C)/C(O)=C3\C(=O)OC4(CC(C)C(CO)=CC4/C=C\2C)C3=O)CC1(C)[N+](=O)[O-] (stereo unspecified) [Kijanimicin Deriv] | inactive: 1.09
COc1ccc2c(c1)C=C([N+](=O)[O-])C(C1OC(C)(C)OC1C1COC(C)(C)O1)O2 (stereo unspecified) | inactive: 1.16
CO[C@H]1[C@H](O)[C@@H](O)[C@H](O)[C@H](O)[C@H]1O [Quebrachitol] | active: 1.57
N[C@@H](CSC(c1ccccc1)(c1ccccc1)c1ccccc1)C(=O)O [S-Trityl cysteine] | inactive: 1.09
O=C1c2cc(O)c(O)cc2OC(c2ccc(O)c(O)c2)C1O (stereo unspecified) [2-(3,4-Dihydroxyphenyl)-3,6,7-trihydroxy-chroman-4-one] | inactive: 0.52
Nc1ccc(OCCCc2c(-c3ccccc3)nc(N)[nH]c2=O)cc1 | inactive: 0.98
COc1ccc(/C=C2\CCCc3ccccc3C2=O)cc1 | inactive: 0.95
CN1CCN(CCCN2c3ccccc3Sc3ccc(C(F)(F)F)cc32)CC1 [Phenothiazine, disuccinate] | inactive: 0.09
COC(=O)C1=CO[C@@H](C)[C@@H]2CN3CCc4c([nH]c5cc(OC)c(OC)cc45)[C@H]3C[C@H]12 [Reserpiline Oxalate] | inactive: 0.925
Cc1c(N)nc(C(CC(N)=O)NCC(N)C(N)=O)nc1C(=O)NC(C(=O)NC(C)C(O)C(C)C(=O)NC(C(=O)NCCc1nc(-c2nc(C(=O)NCCCNCCCCN)cs2)cs1)C(C)O)C(OC1OC(CO)C(O)C(O)C1OC1OC(CO)C(O)C(OC(N)=O)C1O)c1cnc[nH]1 (stereo unspecified) [Bleomycin A5-Sulfate] | inactive: 0.77
O=C1/C(=C/c2cccs2)Oc2ccccc21 [(Z)-2-(2-Thenylidene)benzofuran-3(2H)-one] | inactive: 1.15
O=C(C=C1SCCS1)/C=C\c1ccc(Cl)cc1 | inactive: 0.883
N#CC(=C1C=CC(=NO)C=C1)c1ccc(Cl)cc1 | inactive: 0.91
Cc1cc(=O)n2c3c(c4c(cc13)c(CN(C)C)cc(=O)n4C)OC2 [Nybomycin Deriv] | inactive: 1.22
Cc1ccc2c(ccc(C=Cc3ccc(O)c4ncccc34)[n+]2C)c1 [Quinolinium,6-methyl-, iodide] | inactive: 0.4
CC(=O)Oc1ccc(C(c2ccc(OC(C)=O)cc2)c2ccccn2)cc1 [Bisacodyl] | inactive: 0.34
CC[C@]1(O)C[C@@H]2CN(CCc3c([nH]c4ccccc34)[C@@](C(=O)OC)(c3cc4c(cc3OC)N(C)[C@H]3[C@@](O)(C(=O)OC)[C@H](OC(C)=O)[C@]5(CC)C=CCN6CC[C@]43[C@@H]65)C2)C1 [Vinblastine sulfate] | inactive: 0.79

2 compounds picked at random from those above, as already listed:
SMILES | Kcc2 promoter-driven luciferase activity
COC(=O)NC1C(C)OC(OC2C/C=C(/C)C3C=CC4C(OC5CC(OC6CC(O)C(OC7CC(O)C(OC)C(C)O7)C(C)O6)C(O)C(C)O5)C(C)CC(C)C4C3(C)/C(O)=C3\C(=O)OC4(CC(C)C(CO)=CC4/C=C\2C)C3=O)CC1(C)[N+](=O)[O-] (stereo unspecified) [Kijanimicin Deriv] | inactive: 1.09
COc1c(O[C@@H]2O[C@H](CO)[C@@H](O)[C@H](O)[C@H]2O)cc2c(c1OC)-c1ccc(OC)c(=O)cc1[C@@H](NC(C)=O)CC2 [Colchicoside] | inactive: 0.95

From the supplement of paper PMC8551327
